Assay results taken from patent publication US20200405832A1 (MINERVA BIOTECHNOLOGIES, published 2020).
No constants are given. Whether binding was seen depends on the method and setting. Some binding calls cover weakened binding; strength is not graded here.

Sequences of proteins named here, by UniProt entry; tags and fusion partners are left off. A change or cut given only in a name is not applied to a line headed by its entry.
UniProt P15941: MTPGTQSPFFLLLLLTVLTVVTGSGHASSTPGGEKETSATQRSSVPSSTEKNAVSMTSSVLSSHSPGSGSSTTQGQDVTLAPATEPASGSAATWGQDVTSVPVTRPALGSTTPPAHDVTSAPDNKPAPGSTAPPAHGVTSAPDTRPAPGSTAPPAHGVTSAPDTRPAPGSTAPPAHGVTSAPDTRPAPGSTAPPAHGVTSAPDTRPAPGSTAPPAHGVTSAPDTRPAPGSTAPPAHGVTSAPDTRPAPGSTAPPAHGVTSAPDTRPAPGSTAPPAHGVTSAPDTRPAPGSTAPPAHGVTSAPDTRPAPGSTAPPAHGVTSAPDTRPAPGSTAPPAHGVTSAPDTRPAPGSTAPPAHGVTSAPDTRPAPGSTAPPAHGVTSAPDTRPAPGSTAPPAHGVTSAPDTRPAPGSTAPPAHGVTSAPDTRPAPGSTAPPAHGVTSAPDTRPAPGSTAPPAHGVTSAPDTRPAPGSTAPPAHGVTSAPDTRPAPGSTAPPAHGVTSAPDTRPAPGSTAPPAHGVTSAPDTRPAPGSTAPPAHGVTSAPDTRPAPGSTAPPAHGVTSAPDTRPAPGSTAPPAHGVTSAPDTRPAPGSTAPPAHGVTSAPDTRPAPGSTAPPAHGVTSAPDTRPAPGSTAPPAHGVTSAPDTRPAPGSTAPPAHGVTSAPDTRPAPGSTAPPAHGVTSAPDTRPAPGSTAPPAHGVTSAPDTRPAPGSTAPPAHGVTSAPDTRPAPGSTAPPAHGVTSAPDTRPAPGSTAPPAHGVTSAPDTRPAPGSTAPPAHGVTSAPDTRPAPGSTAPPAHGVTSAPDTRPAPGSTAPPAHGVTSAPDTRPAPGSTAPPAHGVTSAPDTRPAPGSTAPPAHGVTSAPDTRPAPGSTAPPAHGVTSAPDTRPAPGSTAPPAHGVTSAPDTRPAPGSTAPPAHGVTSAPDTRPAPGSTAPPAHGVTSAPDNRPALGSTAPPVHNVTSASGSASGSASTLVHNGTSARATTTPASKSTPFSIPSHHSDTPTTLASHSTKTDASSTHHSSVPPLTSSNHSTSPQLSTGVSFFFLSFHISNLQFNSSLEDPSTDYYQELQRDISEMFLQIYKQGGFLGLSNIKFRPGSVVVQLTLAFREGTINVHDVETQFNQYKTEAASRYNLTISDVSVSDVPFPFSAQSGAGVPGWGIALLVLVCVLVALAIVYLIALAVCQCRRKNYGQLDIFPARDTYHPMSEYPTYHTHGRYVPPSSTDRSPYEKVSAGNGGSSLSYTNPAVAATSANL

Target: MUC1* as on cancer cells and cancerous tissue (T47D breast cancer cells, DU145 prostate cancer cells) (human) (UniProt P15941)
Assay: tissue binding; assay not described

B1: mouse monoclonal antibody MN-E6 (antibody, V domains shown)
VH: EVKVVESGGDLVKPGGSLKLSCVVSGFTFSRYGMSWVRQTPGKRLEWVATISGGGTYIYYPDSVKGRFTISRDNAKNTLYLQMSSLKSEDTAMYHCTRDNYGRNYDYGMDYWGQGTSVTVSS
VL: QIVLTQSPAIMSASPGEEVTLTCSATSSVSYIHWFQQRPGTSPKLWIYSTSNLASGVPVRFSGSGYGTSYSLTISRMEAEDAATYYCQQRSSSPFTFGSGTKLEIK
notes: also called Min-E6
binding: binds
